Results are given in words; binding and its absence hold for the method and conditions named. Binding seen in cells or lysates may run through a third protein. Some results given as binding are weak or reduced against the parent protein; the word gives no strength. Sequences can lack the tags named with a protein.
Target: T1, GST-PDIA5 (human) (UniProt Q14554)
T1 sequence: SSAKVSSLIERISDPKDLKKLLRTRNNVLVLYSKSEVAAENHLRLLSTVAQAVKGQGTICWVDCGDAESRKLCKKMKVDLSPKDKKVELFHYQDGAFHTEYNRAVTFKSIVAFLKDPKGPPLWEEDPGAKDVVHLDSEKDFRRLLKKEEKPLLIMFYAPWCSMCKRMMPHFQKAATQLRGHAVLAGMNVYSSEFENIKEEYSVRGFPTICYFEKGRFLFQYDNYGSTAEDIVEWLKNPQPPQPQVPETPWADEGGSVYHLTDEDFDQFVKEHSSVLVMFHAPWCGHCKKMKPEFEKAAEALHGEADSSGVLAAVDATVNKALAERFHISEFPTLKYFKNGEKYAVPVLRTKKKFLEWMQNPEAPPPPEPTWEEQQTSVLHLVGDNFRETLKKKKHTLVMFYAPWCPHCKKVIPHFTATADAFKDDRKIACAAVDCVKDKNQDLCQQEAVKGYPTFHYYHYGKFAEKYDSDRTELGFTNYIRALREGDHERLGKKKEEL
Experiment: pull-down; GST or GST-PDIA5 from E. coli lysate held on glutathione agarose beads (4°C, 2 h), washed five times; HA-CCAR1 E. coli lysate added for 6 h at 4°C; eluted with glutathione; western blot; only the target purified

B1: HA-CCAR1 (from E. coli) (protein, UniProt Q8IX12 1-1150)
chain: MAQFGGQKNPPWATQFTATAVSQPAALGVQQPSLLGASPTIYTQQTALAAAGLTTQTPANYQLTQTAALQQQAAAAAAALQQQYSQPQQALYSVQQQLQQPQQTLLTQPAVALPTSLSLSTPQPTAQITVSYPTPRSSQQQTQPQKQRVFTGVVTKLHDTFGFVDEDVFFQLSAVKGKTPQVGDRVLVEATYNPNMPFKWNAQRIQTLPNQNQSQTQPLLKTPPAVLQPIAPQTTFGVQTQPQPQSLLQAQISAASITPLLQTQPQPLLQQPQQKAGLLQPPVRIVSQPQPARRLDPPSRFSGRNDRGDQVPNRKDDRSRERERERRRSRERSPQRKRSRERSPRRERERSPRRVRRVVPRYTVQFSKFSLDCPSCDMMELRRRYQNLYIPSDFFDAQFTWVDAFPLSRPFQLGNYCNFYVMHREVESLEKNMAILDPPDADHLYSAKVMLMASPSMEDLYHKSCALAEDPQELRDGFQHPARLVKFLVGMKGKDEAMAIGGHWSPSLDGPDPEKDPSVLIKTAIRCCKALTGIDLSVCTQWYRFAEIRYHRPEETHKGRTVPAHVETVVLFFPDVWHCLPTRSEWETLSRGYKQQLVEKLQGERKEADGEQDEEEKDDGEAKEISTPTHWSKLDPKTMKVNDLRKELESRALSSKGLKSQLIARLTKQLKVEEQKEEQKELEKSEKEEDEDDDRKSEDDKEEEERKRQEEIERQRRERRYILPDEPAIIVHPNWAAKSGKFDCSIMSLSVLLDYRLEDNKEHSFEVSLFAELFNEMLQRDFGVRIYKSLLSLPEKEDKKEKDKKSKKDERKDKKEERDDETDEPKPKRRKSGDDKDKKEDRDERKKEDKRKDDSKDDDETEEDNNQDEYDPMEAEEAEDEEDDRDEEEMTKRDDKRDINRYCKERPSKDKEKEKTQMITINRDLLMAFVYFDQSHCGYLLEKDLEEILYTLGLHLSRAQVKKLLNKVVLRESCFYRKLTDTSKDEENHEESESLQEDMLGNRLLLPTPTVKQESKDVEENVGLIVYNGAMVDVGSLLQKLEKSEKVRAEVEQKLQLLEEKTDEDEKTILNLENSNKSLSGELREVKKDLSQLQENLKISENMNLQFENQMNKTIRNLSTVMDEIHTVLKKDNVKNEDKDQKSKENGASV
Which binding does the source give for B1 here?
The binding was “binds”.

Reference: publication PMC11379074
